About 210 (0.4%) of roughly 52,000 sequences were called active.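 How the source made its calls: active means gene whose silencing raises cell survival under the drug, median off-target-corrected z-score across its silencing RNAs 2 or more; inactive means the rest.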 The list shows a part of the results.
Assay: Resistance to Poly (ADP-Ribose) Polymerase inhibitor: Gene Identification via Genome-wide siRNA Screen
Conditions: mouse BRCA2 R2336H ES cells, olaparib, CellTiter-Glo viability; stronger effect = higher value
How it was run: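 Mouse BRCA2 R2336H ES cells were reverse-transfected with siRNA (20 nM final), treated at 48 h with 500 nM olaparib, and read by CellTiter-Glo after 72 h. Scores: MAD-based z per siRNA, median per gene, seed off-target correction.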

Row | Sequence | z-score
1 | CCAGGACAAUAACUCUGAGTT against Aatk | inactive: 0.365
2 | GGAGCUAGGAAGGUGGUAGTT against Mutyh | inactive: 0.077
3 | GGAAGAGGCAGAUUUAUGGTT against 2310046G15Rik | inactive: 2.47
4 | GCGCACAACAGACUUCUAUTT against Epm2a | inactive: 0.346
5 | CCUAAAGAAGGUCUAUGCCTT against Tegt | inactive: 0.524
6 | GCAACUAGCGUGUGUUCCUTT against Arpc1a | inactive: 0.156
7 | GGAUGGAAAUAAAUUCACATT against Fabp2 | inactive: -0.811
8 | GCCCGGAGAAUAUUAACUATT against AI839562 | inactive: 0.557
9 | GGCCAUAUGUCAAGAAGUUTT against Svp2 | inactive: -1.19
10 | CCUUAUAGCUAUGACUUUCTT against Tas2r136 | inactive: -0.137
11 | GGAACUGAUGAGAACACUATT against Gbp1 | inactive: -0.441
12 | GGCCGUGAUAGUCAGUGACTT against LOC433365 | inactive: 0.0165
13 | GGAGACAAUAAUUGAAGAUTT against Gabpb2 | inactive: 0.496
14 | GCAGAUCGGUUCUCAGAUGTT against 4930538K18Rik | inactive: 1.12
15 | GGCUGACCUCAUUAAUAACTT against Hspcb | inactive: 0.724
16 | GCCACUAGUGAAGACAUCCTT against 5930437A14Rik | inactive: 0.765
17 | GGAGAUGGAAAAGAACAGATT against Dtnb | inactive: 0.109
18 | GGUCUAUGGCUUAAACUUUTT against Evl | inactive: -0.257
19 | CCACACGAGUAUUUUAGUATT against BC014685 | inactive: 0.0246
20 | GCAUGCUAGGGAACCUGCUTT against Olfr1318 | inactive: -0.313
21 | GGUGCUGGAGAACAUUAAATT against Panx1 | inactive: -0.231
22 | GCCUAUCAAUGUGUAUCUUTT against Tcf21 | inactive: 1.1
23 | GGACAGGUACUUUUCCCUGTT against Gnpda2 | inactive: 0.454
24 | GGUGCUCACAGUGAAGAAGTT against Ppm1h | inactive: -0.176
25 | GGAAGUGGAUGAGGAUUGATT against Purb | inactive: -0.671
26 | GGCUUACCUUGGAUUUUAUTT against Rab36 | inactive: 0.394

Row | Sequence | z-score
27 | CCCUGAGUGCCGUAUGAUUTT against Ddb1 | inactive: -1.92
28 | GGUGAUGGAUGUGGACACATT against Dcbld2 | inactive: -0.607
29 | GGAGAUUGUGGAAAUGCUUTT against Skiv2l | inactive: 1.28
30 | CCAUGUCCUAACCUGAAACTT against Zic5 | inactive: 0.454
31 | GGUGUAUAGUUUUACACUCTT against Psen2 | inactive: 2.03
32 | CGGAGCCAGUUGGUAAAGATT against Vps39 | inactive: -1.25
33 | GCCAAACGUGGGUUUGAUATT against Ccna1 | inactive: -0.552
34 | CCUAAAUUCUUCACCUUCGTT against A830007P12Rik | inactive: -0.204
35 | GGAUGAAAAGUUAAAGCAUTT against Ppp1r7 | inactive: -0.691
36 | GCUGUACAAUUUUAGGAGGTT against Slc17a2 | inactive: 0.0998
37 | GGGCCUGCCAGUGUGAUAUTT against Gpha2 | inactive: -0.958
38 | GGUGGUGGUACUGGUCAAUTT against D11Lgp2e | inactive: -0.181
39 | CCUGGUGACAUCACUAAAATT against P4ha1 | inactive: 1.15
40 | CCUUGUCCCUUUACCUCAATT against 6330514A18Rik | inactive: -1.92
41 | GCUACUUCAGCUAUUGAGGTT against Cd200r1 | inactive: 1.27
42 | GGCAUGGGAAUUAUUCCAATT against Kif5b | inactive: 0.629
43 | GGAAAUACAGAACACAAGCTT against 9430067K14Rik | inactive: 0.496
44 | GGAUUAUCAGAAGUGUGUCTT against Mrps35 | inactive: 0.898
45 | GGAUGAACAACUCUAGGCCTT against Mafk | inactive: -0.117
46 | GGGAAACAGAUGAAAGAGUTT against 2310035C23Rik | inactive: -1.44
47 | GCAAUUCAUCAGGAGCAGGTT against Rab8b | inactive: -0.27
48 | GGAUGACCACACUAACCUCTT against Fars1 | inactive: -1.89
49 | CGAGGCUAUUGACUUCAUATT against Dusp1 | inactive: -0.184
50 | CGUCUGUUUUUGUGAAUUATT against LOC432736 | inactive: -0.324
51 | GGAUUCAAGCAUCGGAUUGTT against Adamts6 | inactive: -2.09
52 | GGAACAGCAGCUUCCCUAATT against 4930555G01Rik | inactive: -1.77

Reformatted: entries from further up

| Row | Sequence | z-score |
| --- | --- | --- |
| 17 | GGAGAUGGAAAAGAACAGATT against Dtnb | inactive: 0.109 |
| 18 | GGUCUAUGGCUUAAACUUUTT against Evl | inactive: -0.257 |
| 27 | CCCUGAGUGCCGUAUGAUUTT against Ddb1 | inactive: -1.92 |
| 31 | GGUGUAUAGUUUUACACUCTT against Psen2 | inactive: 2.03 |
| 36 | GCUGUACAAUUUUAGGAGGTT against Slc17a2 | inactive: 0.0998 |
| 43 | GGAAAUACAGAACACAAGCTT against 9430067K14Rik | inactive: 0.496 |

Further entries follow:

Row | Sequence | z-score
53 | GAUCUCUGAAUUACGGAGUTT against Krtap13 | inactive: 1.59
54 | CCCACUACCGUCUUUCCUATT against F830014G06Rik | inactive: -1.46
55 | GGAGACCUUGAAGAAGAUUTT against Vav2 | inactive: -0.626
56 | GCUAUUCUGUAAGGUCCCGTT against 1700020F09Rik | inactive: 1.99
57 | GCUGAGCAUCCAGUGUAGUTT against Gm433 | inactive: 0.0421
58 | GCCGUACCGGAUUUUUUUCTT against Smyd3 | inactive: 0.405
59 | GGUGAAAACGUGGUUCCAGTT against Bsx | inactive: -1.19
60 | GGGUACUGUUUUGUUAACUTT against Rbm18 | inactive: -0.248
61 | GGCCAGAGUAUCGAUGUUCTT against Slc25a14 | inactive: -0.747
62 | GGAUGUUAAAGCAAGUGUATT against Olfr1153 | inactive: -1.18
63 | CGACCAAGAUGUAAUACAUTT against Nudt8 | inactive: 0.00898
64 | GGACAGUUCCAUGAAUACCTT against Rab5b | inactive: -0.505
65 | GGUGAAACGGGAUGUUAACTT against Ppargc1b | inactive: 0.429
66 | GGACAUCAUGUGCAUGGAATT against Fbxo38 | inactive: -0.54
67 | GGUAUACCAGAGGAAGAAGTT against Slc39a11 | inactive: 0.229
68 | GCAAUAUGGCCUCAGUCUCTT against Rnf33 | inactive: -0.153
69 | GCCAGUACUCUGCUUGUGATT against 4933440H19Rik | inactive: -2.27
70 | GGAUUCAGCAGACUUUGAATT against C730027P07Rik | inactive: -1.58
71 | GGUUCAGAAGUUUGGGAGATT against Mrpl48 | inactive: -1.02
72 | GGAUGAAGAACUUCUCUGGTT against 2010002A20Rik | inactive: -0.217
73 | GGAGUUUACGGCUAUUGACTT against Centa2 | inactive: -1.46
74 | GCUGUGUGUUGUUCAAUUGTT against Pdcd6ip | inactive: -0.0293
75 | GGGCAUGCUGCUUAUUGUGTT against Slc5a4b | inactive: 1.65
76 | CCCUGAGAAGGAUGCGAAATT against Mgat4b | inactive: -0.109
77 | GGCAAAGAGUUUUGAUCAGTT against Calu | inactive: 0.133
78 | GGUACUCCAGAAUAGAAGCTT against Gdf8 | inactive: 0.715

Row | Sequence | z-score
79 | GGAGAAGAGCAGAAUAUGCTT against B930060C03 | inactive: 1.01
80 | GGAGACAAUGGACAAGAAGTT against Dnalc4 | inactive: 1.01
81 | GUUUUUCUGGGCAAUUUUATT against Olfr739 | inactive: 1.5
82 | GGGUUUAUGUUGCCGACUCTT against Set7 | inactive: -1.02
83 | GAGACAUCCUCUUCACCAUTT against Olfr495 | inactive: -2.11
84 | GCACAACAUCACGGUGAACTT against Adcy5 | inactive: -0.642
85 | GGUGCAACAACACCACAUCTT against Mmp1a | inactive: -0.511
86 | GGAUCACUGGGAAAACGGUTT against Nfatc2 | inactive: 0.459
87 | GGAUCUUUCAAAGAGAGUUTT against Egfl8 | inactive: 0.0584
88 | CGACAUGGAAUGUUCACACTT against Metap2 | inactive: 1.98
89 | GGAGCUGAAUGAAAACCAGTT against 2810468K05Rik | inactive: 0.16
90 | GGAGAAGCUAAGAAACGAGTT against Acyp2 | inactive: -0.523
91 | GGGAUUUGGUUUCGUAACUTT against A2bp1 | inactive: 0.991
92 | GGUGUCUUUGCUCAGCUCATT against Lrfn4 | inactive: -0.857
93 | GGCAUAGCACUUUUGUACCTT against Lancl2 | inactive: 0.93
94 | CGAUACAUAUCCAUUGUAUTT against A030013N09Rik | inactive: -0.405
95 | CCGCCUUUCUUACAACCAATT against Rpl41 | inactive: -0.65
96 | GCAGAUAAUCUAGCAAAGATT against Agps | inactive: 0.0454
97 | GCACAGGGAAUGUUGUAGATT against Polr3d | inactive: -0.56
98 | UAGUCAUUGGGAUUCCUUCTT against Olfr112 | inactive: 0.647
99 | GGGAAUGCUUAUGUAGGCATT against Aldh3b1 | inactive: -1.27
100 | CGGGUCUGCUCUUUGGAAATT against Yif1b | inactive: -1.08
101 | GCGUAAAUCUCCACACUACTT against V1ra9 | inactive: 2.16
102 | CCUACUACAUCCGCUACUGTT against Apba2 | inactive: -1.5
103 | GGUCUAUGCUGAUGCUUCUTT against Dhps | inactive: 0.618
104 | GCAGAGAGCACAAUAAAGCTT against 0710001P09Rik | inactive: 0.0234

From PubChem BioAssay AID1347423 (Functional Genomics Laboratory (NCATS/FGL), 2020)
